From patent publication EP3020822A1
Results are given in words; binding and its absence hold for the method and conditions named. Some results given as binding are weak or reduced against the parent protein; the word gives no strength.

The chains behind the UniProt entries cited, without tags or fusion partners. Where a name states a change or a piece, a line headed by the entry shows the natural chain unless it says otherwise.
UniProt Q99MB1: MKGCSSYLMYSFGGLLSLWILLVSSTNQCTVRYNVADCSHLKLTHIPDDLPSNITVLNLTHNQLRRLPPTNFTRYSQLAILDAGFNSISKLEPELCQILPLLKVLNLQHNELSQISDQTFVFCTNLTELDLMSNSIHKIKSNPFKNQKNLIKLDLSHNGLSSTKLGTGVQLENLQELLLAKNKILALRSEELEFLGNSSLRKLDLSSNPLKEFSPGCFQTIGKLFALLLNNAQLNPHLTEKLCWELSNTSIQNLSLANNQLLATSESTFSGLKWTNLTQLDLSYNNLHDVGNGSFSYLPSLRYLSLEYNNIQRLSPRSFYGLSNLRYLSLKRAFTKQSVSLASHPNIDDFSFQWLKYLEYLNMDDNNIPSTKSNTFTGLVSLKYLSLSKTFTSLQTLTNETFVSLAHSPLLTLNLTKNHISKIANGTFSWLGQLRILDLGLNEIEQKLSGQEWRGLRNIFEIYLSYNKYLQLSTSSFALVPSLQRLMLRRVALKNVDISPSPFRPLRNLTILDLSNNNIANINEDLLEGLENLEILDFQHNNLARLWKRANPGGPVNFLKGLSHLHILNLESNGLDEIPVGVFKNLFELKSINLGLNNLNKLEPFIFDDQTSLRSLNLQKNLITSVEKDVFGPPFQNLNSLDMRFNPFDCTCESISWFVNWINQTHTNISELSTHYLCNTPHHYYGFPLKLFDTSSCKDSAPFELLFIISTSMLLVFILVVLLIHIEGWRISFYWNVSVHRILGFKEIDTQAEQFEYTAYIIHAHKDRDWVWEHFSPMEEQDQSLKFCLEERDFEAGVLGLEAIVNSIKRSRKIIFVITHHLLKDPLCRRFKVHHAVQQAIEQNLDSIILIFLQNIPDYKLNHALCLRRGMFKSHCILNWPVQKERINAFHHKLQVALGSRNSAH

Target: murine TLR3, full length (mouse) (UniProt Q99MB1)
Test: flow cytometry, surface staining of thioglycollate-elicited mouse peritoneal macrophages, Alexa-Fluor 647 conjugate

B1: mAb c1811 (antibody, mouse IgG1, kappa, V domains shown)
VH: EVQLVASGGGLVKPGASLKLSCVASGFTFSDYWMAWVRQTPGKPMEYIGDIKSDGSKVNYAPSLKNRFTISRDNARTTLYLQMSNVRSEDTATYYCNRDIGPDWYFDFWGPGTMVTVSS
VL: DIQMTQSPTSLSASLGETVTIECRASEDIYNGLAWYQQKPGKSPQLLIYDSNSLHTGVPSRFSGRGSGTQYSLRINSLQSEDVASYFCQQYYDYPLTFGSGTKLEIKR
binding: binds
